Experimental findings from PubChem BioAssay AID256 (DTP/NCI, 2004) are described below.

In this assay the test system is CD2F1 mice, L1210 leukemia ip, survival T/C. Description: NCI In Vivo Anticancer Drug Screen. Data for tumor model L1210 Leukemia (intraperitoneal) in CD2F1 (CDF1) mice. To be noted: T/C endpoint: mean survival time, higher T/C = longer survival. The procedure, abridged: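 Antitumor effect is scored in animals hosting a serially transplanted tumor. Values compare compound-dosed animals against vehicle-only controls as a simple quotient.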

[1] abbreviates: dose: 400.0 mg/kg/injection, schedule: Q01DX009 (ip), vehicle: saline with Tween-80.
The mark [2] stands for this setting: dose: 40.0 mg/kg/injection, schedule: Q01DX009 (ip), vehicle: saline with Tween-80.
Where [3] appears, read: dose: 50.0 mg/kg/injection, schedule: Q01DX009 (ip), vehicle: saline with Tween-80.
Setting [4] is: dose: 300.0 mg/kg/injection, schedule: Q01DX001 (ip), vehicle: saline.
[5] abbreviates: dose: 100.0 mg/kg/injection, schedule: Q04DX003 (ip), vehicle: saline with Tween-80.
[6] abbreviates: dose: 200.0 mg/kg/injection, schedule: Q04DX003 (ip), vehicle: saline with Tween-80.
Where [7] appears, read: dose: 400.0 mg/kg/injection, schedule: Q04DX003 (ip), vehicle: saline with Tween-80.
Where [8] appears, read: dose: 200.0 mg/kg/injection, schedule: Q01DX009 (ip), vehicle: saline.
Where [9] appears, read: dose: 400.0 mg/kg/injection, schedule: Q01DX009 (ip), vehicle: saline.
Setting [10] is: dose: 100.0 mg/kg/injection, schedule: Q01DX009 (ip), vehicle: saline with Tween-80.
[11] abbreviates: dose: 400.0 mg/kg/injection, schedule: Q04DX003 (ip), vehicle: saline.

The list does not hold the whole screen: it is rich in T/C values a quarter to a half above the control, in often repeated tests (any T/C) and in doses without a T/C. Other doses and runs of a compound stand elsewhere. T/C gives the treated animals as a percentage of the vehicle group. Some doses have a count of surviving animals in place of a T/C: the source files T/C as zero there, which appears to mark a toxic dose or a test without result, not a measured value. Some survivor counts are full or nearly so, which does not show that the dose was tolerated: the source hardly ever lists a survival T/C far under the control, and the zero likely stands for such cases as well. Survivors were counted at the toxicity check, usually on the fifth day, unless a day is given; later deaths do not show. Schedule codes are those of the source, taken here to give the interval after Q, in days (D) or hours (H), and the number of doses after X. Some doses were run more than once; the values are given in rising order. Where survival is the endpoint, this PubChem deposit counts one and a half times the control or more as active, and values a quarter to a half above the control carry no call in these data; other NCI protocols may use other cut-offs. Some T/C values carry the count of animals alive at the toxicity check (mostly the fifth day); without a count, all were alive then.

Consider `CSc1nc(Cl)cc(/N=C/N(C)C)n1`, for which the survivor count under setting [1] was 1 of 6.
Take `COC1C(O)C(C)OC(OC2C(Oc3cccc4c(O)c5c(=O)oc6ccc(C)c7c(=O)oc(c34)c5c67)OC(C)C(O)C2O)C1O` (stereo not drawn): under setting [2], the T/C is 125 % of control.
`O=C1/C(=N/O)Cc2ccccc21`: the survivor count (dose: 25.0 mg/kg/injection, schedule: Q01DX009 (ip), vehicle: saline with Tween-80) is given as 3 of 6 and the survivor count under setting [3] is 0 of 6.
Regarding `BrC1=C(Br)C(Br)(Br)C(Br)=C1Br`, the survivor count (dose: 10.0 mg/kg/injection, schedule: Q01DX009 (ip), vehicle: saline with Tween-80) is given as 0 of 6; the survivor count (dose: 20.0 mg/kg/injection, schedule: Q01DX009 (ip), vehicle: saline with Tween-80) is given as 0 of 6; the survivor count under setting [2] was 0 of 6.
Regarding `O=c1[nH]nc([O-])c2c1[n+](Cc1ccccc1)cn2Cc1ccccc1`, for the setting “dose: 150.0 mg/kg/injection, schedule: Q01DX005 (ip), vehicle: water”, the survivor count is 3 of 3.
On to `O=C1NC(=O)C(Br)C(=O)N1`, for which the survivor count under setting [4] was 0 of 6.
`N#CCC(=O)N/N=C/c1ccc2c(c1)CCC2`: the survivor count is on record as 6 of 6 under setting [5], 5 of 6 under setting [6] and 6 of 6 under setting [7].
With `Cc1cc[n+](C)c(-c2ccccc2)c1`, the survivor count is given as 0 of 6 (dose: 100.0 mg/kg/injection, schedule: Q01DX009 (ip), vehicle: saline); 0 of 6 under setting [8]; 0 of 6 under setting [9].
On to `CC(C)(C#N)C(C)(C)C#N`, for which the survivor count is reported as 0 of 6 under setting [5], 0 of 6 under setting [6] and 0 of 6 under setting [7].
For the compound `CCCCCCCCCCCCCCCCCC[n+]1ccccc1`, the survivor count was 0 of 3 (dose: 3.12 mg/kg/injection, schedule: Q01DX001 (ip), vehicle: saline with Tween-80); 0 of 3 (dose: 6.25 mg/kg/injection, schedule: Q01DX001 (ip), vehicle: saline with Tween-80); 0 of 3 (dose: 12.5 mg/kg/injection, schedule: Q01DX001 (ip), vehicle: saline with Tween-80).
As for `CC(=O)C(N=Nc1cccc2c1C(=O)c1cccc(Cl)c1C2=O)C(=O)Nc1ccccc1Cl` (stereo not drawn), the survivor count under setting [4] was 6 of 6.
Regarding `CC1(C)C(O)(C#N)C(C)(C)C1(O)C#N` (stereo not drawn), the survivor count (dose: 25.0 mg/kg/injection, schedule: Q04DX003 (ip), vehicle: saline) was 0 of 6.
`CC(=O)Nc1ccc(Nc2ccc(C(=C3C=CC(=[N+](C)CCC#N)C=C3)c3ccc(N(C)CCC#N)cc3)cc2)cc1`: the survivor count was 1 of 6 and 6 of 6 under setting [3]; 0 of 6 and 2 of 6 under setting [10]; 0 of 6 (dose: 200.0 mg/kg/injection, schedule: Q01DX009 (ip), vehicle: saline with Tween-80); 0 of 6 under setting [1]; 1 of 3 (dose: 400.0 mg/kg/injection, schedule: Q04DX002 (ip), vehicle: saline with Tween-80). In addition, for the setting “dose: 100.0 mg/kg/injection, schedule: Q04DX002 (ip), vehicle: saline with Tween-80”, the T/C was 128 % of control [2 of 3 alive].
On to `C[n+]1ccc(C#N)c2ccccc21`, for which the survivor count was 1 of 6 (dose: 100.0 mg/kg/injection, schedule: Q04DX003 (ip), vehicle: acetone); 1 of 6 (dose: 200.0 mg/kg/injection, schedule: Q04DX003 (ip), vehicle: acetone); 0 of 6 (dose: 400.0 mg/kg/injection, schedule: Q04DX003 (ip), vehicle: acetone).
In the case of `CCCCNC(=S)N(CCCC)CCCC`, the survivor count under setting [1] is reported as 1 of 6.
For the compound `CC1(C)C2CC=C(C[P+](c3ccccc3)(c3ccccc3)c3ccccc3)C1C2` (stereo not drawn), the survivor count reads like this: (dose: 10.0 mg/kg/injection, schedule: Q01DX009 (ip), vehicle: saline sonified) 3 of 6; (dose: 20.0 mg/kg/injection, schedule: Q01DX009 (ip), vehicle: saline sonified) 2 of 6.
On to `O=C(O[Si](Cc1ccccc1)(Cc1ccccc1)Cc1ccccc1)N(CCCl)CCCl`, for which the T/C by setting is: (dose: 12.5 mg/kg/injection, schedule: Q01DX009 (ip), vehicle: distilled water + Tween-80) 127 % of control; (dose: 50.0 mg/kg/injection, schedule: Q01DX009 (ip), vehicle: distilled water + Tween-80) 127 % of control; (dose: 100.0 mg/kg/injection, schedule: Q01DX009 (ip), vehicle: distilled water + Tween-80) 129 % of control.
Turning to `Nc1ccc(OCCCc2ccccc2)c([N+](=O)[O-])c1`, the survivor count by setting is: (dose: 400.0 mg/kg/injection, schedule: Q01DX001 (ip), vehicle: other) 0 of 3 and 1 of 6; (dose: 400.0 mg/kg/injection, schedule: Q04DX003 (ip), vehicle: other) 2 of 6.
`c1ccc(SCN2CCN(CSc3ccccc3)CC2)cc1`: the survivor count runs as follows: under setting [8], 6 of 6; under setting [9], 2 of 6.
As for `CC(=O)Nc1ccc2c(Nc3ccc(NS(C)(=O)=O)cc3)c3ccccc3nc2c1`, the survivor count under setting [11] was 4 of 6.
Take `C/C(=C\Cl)CO`: the survivor count (dose: 200.0 mg/kg/injection, schedule: Q01DX009 (ip), vehicle: acetone) was 3 of 6.
`CC(CO)CCC(=O)C(C)C1C2(CC3C4CCC5CC(O)CCC5(C)C4CCC31C)SCCS2` (stereo not drawn): under “dose: 200.0 mg/kg/injection, schedule: Q04DX002 (ip), vehicle: saline with Tween-80”, the survivor count was 3 of 3.
For the compound `O=C1c2c(Cl)c(Cl)c(Cl)c(Cl)c2C(=O)N1O`, the survivor count is recorded as 3 of 6 under setting [10] and 2 of 6 under setting [1].
Turning to `CN(C)CCCNc1cc(O)c2c(c1O)C(=O)c1ccccc1C2=O`, where the note is “dose: 400.0 mg/kg/injection, schedule: Q01DX009 (ip), vehicle: water”, the survivor count is 3 of 6.
With `COC(=O)C(NC(=O)CCNC(=O)OCc1ccccc1)C(C)C` (stereo not drawn), the survivor count under setting [1] was 3 of 6.
In the case of `O=Cc1ccccc1`, the survivor count (dose: 800.0 mg/kg/injection, schedule: Q01DX009 (ip), vehicle: Klucel (hydroxypropylcellulose) (HPC)) is listed as 0 of 6.
As to `Cc1ccc([As+](c2ccccc2)(c2ccccc2)c2ccccc2)cc1`, the survivor count (dose: 75.0 mg/kg/injection, schedule: Q01DX001 (ip), vehicle: saline) is 0 of 6; the survivor count (dose: 150.0 mg/kg/injection, schedule: Q01DX001 (ip), vehicle: saline) is 0 of 6; the survivor count under setting [4] is 0 of 6.
For `C/C=C(\C)c1cc(=O)c2c(C)cc3c(c2o1)C(OC)(OC(C)=O)c1c(O)c(C2CC(C)(N(C)C)C(OC(C)=O)C(C)O2)cc(C2CC(N(C)C)C(OC(C)=O)C(C)O2)c1C3=O` (stereo not drawn), the survivor count under setting [11] is on record as 3 of 6.
Regarding `C1=C[N-]c2c3c(ccc2=C1)=CC=C[N-]3.C1=C[N-]c2c3c(ccc2=C1)=CC=C[N-]3.[Cl][Ru][Cl]`, the survivor count runs as follows: (dose: 25.0 mg/kg/injection, schedule: Q04DX003 (ip), vehicle: water) 1 of 6; (dose: 50.0 mg/kg/injection, schedule: Q04DX003 (ip), vehicle: water) 0 of 6; (dose: 100.0 mg/kg/injection, schedule: Q04DX003 (ip), vehicle: water) 0 of 6; (dose: 200.0 mg/kg/injection, schedule: Q04DX003 (ip), vehicle: water) 0 of 6.
With `O=CC(Br)C(Br)c1ccccc1` (stereo not drawn), the survivor count (dose: 50.0 mg/kg/injection, schedule: Q04DX003 (ip), vehicle: saline with Tween-80) is reported as 2 of 6; the survivor count (dose: 100.0 mg/kg/injection, schedule: Q01DX009 (ip), vehicle: other) was 6 of 6; the survivor count under setting [5] is reported as 3 of 6; the survivor count (dose: 200.0 mg/kg/injection, schedule: Q01DX009 (ip), vehicle: other) is reported as 0 of 6.
Consider `CC(=O)C1=C(C)NC(C)=C(C(C)=O)C1C`, for which the survivor count under setting [1] is on record as 3 of 6.
